Results taken from article PMC2518108.
No constants are given. Whether binding was seen depends on the method and setting. Binding can be weak; no strength is given.

Protein sequences, listed by entry. Tags and fused reporters are not part of them. Lines headed by an entry give the natural chain unless they say otherwise; changes in a name come on top. Residues count along the entry.
UniProt A4K8J2: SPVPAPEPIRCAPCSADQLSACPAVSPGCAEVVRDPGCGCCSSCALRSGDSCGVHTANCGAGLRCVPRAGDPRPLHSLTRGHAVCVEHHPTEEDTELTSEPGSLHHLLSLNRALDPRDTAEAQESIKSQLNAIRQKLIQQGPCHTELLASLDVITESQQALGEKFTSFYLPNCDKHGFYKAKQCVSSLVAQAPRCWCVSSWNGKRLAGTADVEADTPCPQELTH
UniProt P05019, residues 49-118: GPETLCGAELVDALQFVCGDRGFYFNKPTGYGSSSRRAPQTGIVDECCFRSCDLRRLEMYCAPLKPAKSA

Target: zebrafish IGFBP-1b (zebrafish) (UniProt A4K8J2)
Experiment: far-Western, overlay or dot blot; western ligand blotting: 0.3 ug purified IGFBP-1a or -1b on SDS-PAGE under non-reducing condition, blotted and probed with DIG-labeled IGF-1; both purified

binding: binds
Substance: DIG-labeled IGF-1 (from UniProt P05019 49-118) (ligand)
